Laboratory results reported in article PMC5996148.
Where “and” joins values, the source holds several entries; their conditions need not be identical. Identical values can stand only once. Some of the results follow. For some assays here: Construct or isoform of the protein are uncertain.

By UniProt entry, the sequences of proteins in these tests, tags left out.
UniProt O43676, whole entry: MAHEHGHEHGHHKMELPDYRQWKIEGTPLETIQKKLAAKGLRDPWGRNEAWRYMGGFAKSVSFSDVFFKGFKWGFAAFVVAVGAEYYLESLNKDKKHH

What was measured:
Experiment in all cases: protein microarray (ProtoArray v5.0), streptavidin-Alexa Fluor 647
Settings in all cases: 3'-biotin; 20 mM Tris (pH 7.5), 5 mM MgCl2, 100 mM KCl, 0.1% Tween-20, A/T-rich and random oligonucleotide blockers; temperature not stated; high values mean tight binding
[1] = system: NCBP1 (human)
[2] = system: NCOA4 (human)
[3] = system: NDRG4 (human)
[4] = system: NDUFA4 (human)
[5] = system: NDUFA5 (human)
[6] = system: NDUFB1 (human)
[7] = target: NDUFB3 (UniProt O43676)
[8] = system: NEDD8-activating enzyme E1 catalytic subunit (human)
[9] = system: NETO1 (human)
[10] = system: NFE2 (human)
[11] = system: NFKBIB (human)
[12] = system: NFU1 iron-sulfur cluster scaffold homolog, mitochondrial (human)
[13] = system: NINJ2 (human)
[14] = system: NIPSNAP3B (human)
[15] = system: NIT2 (human)
[16] = system: NKG2D ligand 4 (human)
[17] = system: NLRP2 (human)
[18] = system: NME1 (human)
[19] = system: NME5 (human)
[20] = system: NME6 (human)

Question: Which results are given for “GGTGACAGGGGTATGGGGAGGGG [G4-2 biotinylated (Ct1)]”?
Answer: binding signal [1]: -0.375 z-score; binding signal [2]: -0.38 z-score; binding signal [3]: -0.402 z-score and -0.392 z-score; binding signal [4]: -0.377 z-score; binding signal [5]: -0.398 z-score; binding signal [6]: -0.388 z-score; binding signal [7]: -0.389 z-score; binding signal [8]: -0.391 z-score; binding signal [9]: -0.385 z-score; binding signal [10]: -0.361 z-score; binding signal [11]: -0.385 z-score; binding signal [12]: -0.391 z-score; binding signal [13]: -0.387 z-score; binding signal [14]: -0.39 z-score; binding signal [15]: -0.394 z-score; binding signal [16]: -0.362 z-score; binding signal [17]: -0.372 z-score; binding signal [18]: -0.394 z-score; binding signal [19]: -0.394 z-score; binding signal [20]: -0.386 z-score
